Values from PubChem BioAssay AID652272 (Drosophila RNAi Screening Center, 2013).
In all, the deposit lists about 21,000 reagents; below is an unselected part of those that have a named target and a result. In the full data, 503 (2.4%) got an active call. 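Raw plate light values, not normalised; calls rest on replicate z-scores that were not deposited; hits include reporter decreases as well as increases.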 Not stated in the record: the amount of reagent, the time to read-out.

Purpose: 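Genes whose knock-down decreases or increases Hedgehog reporter output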 (primary screen)
System: Drosophila clone 8 (Cl8) cells
Knock-down reagent: long dsRNA against Drosophila genes
Detection: 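Firefly light from a Hedgehog-responsive ptc promoter reporter and Renilla reference light, both read on a plate reader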
Scale: firefly Hh reporter signal: higher = more ptc reporter light; Renilla reference signal: higher = more Renilla control light
Rule for the call: 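Called a hit if the two-replicate mean z-score lies below -2 or above +3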
Meaning of the calls: active = hit: reporter lowered or raised; inactive = not a hit

no.	Gene	amplicon	firefly Hh reporter signal, replicate 1	firefly Hh reporter signal, replicate 2	Renilla reference signal, replicate 1	Renilla reference signal, replicate 2	activity call
1	Ufc1	DRSC07156	1.01e5	76912	4634	2973	inactive
2	sni	DRSC17770	92763	77748	2242	1944	inactive
3	CG1791	DRSC18141	73698	54579	1712	1498	inactive
4	PIG-S	DRSC14643	99383	78458	3760	2968	inactive
5	PIG-S	DRSC15388	5.91e5	1.24e5	30361	4001	inactive
6	PIG-S	DRSC15952	1.27e5	1.15e5	5341	4321	inactive
7	Invadolysin	DRSC15527	83899	94080	2454	3146	inactive

Part of the list above, reformatted.
| Gene | amplicon | firefly Hh reporter signal, replicate 1 | firefly Hh reporter signal, replicate 2 | Renilla reference signal, replicate 1 | Renilla reference signal, replicate 2 | activity call |
| --- | --- | --- | --- | --- | --- | --- |
| PIG-S | DRSC14643 | 99383 | 78458 | 3760 | 2968 | inactive |
| PIG-S | DRSC15388 | 5.91e5 | 1.24e5 | 30361 | 4001 | inactive |
| PIG-S | DRSC15952 | 1.27e5 | 1.15e5 | 5341 | 4321 | inactive |

The results go on.
no.	Gene	amplicon	firefly Hh reporter signal, replicate 1	firefly Hh reporter signal, replicate 2	Renilla reference signal, replicate 1	Renilla reference signal, replicate 2	activity call
8	CG15021	DRSC08475	82593	74042	5536	5635	inactive
9	fzo	DRSC16954	5.23e5	77299	26400	2080	inactive
10	CG3703	DRSC18172	1.23e5	2.55e5	4762	11461	inactive
11	CG3703	DRSC18173	94096	1.81e5	3760	6945	inactive
12	CG3703	DRSC18643	82096	1.27e5	3305	5284	inactive
13	CG15412	DRSC00427	70662	30758	2128	3703	inactive
14	CG6761	DRSC10705	90421	77196	3920	3300	inactive
15	SmydA-1	DRSC07200	1.80e5	1.12e5	6787	4528	inactive
16	HDAC1	DRSC08696	94844	79161	3356	2258	inactive
17	CG10252	DRSC14221	97542	93381	3588	3475	inactive
18	shf	DRSC18283	69591	2.14e5	2509	7520	inactive
19	CG8026	DRSC07055	99233	74695	3974	2512	inactive
20	CG8026	DRSC07056	92646	54016	1699	4099	inactive
21	nenya	DRSC13838	44379	1.69e5	12528	3923	inactive
22	slmb	DRSC17056	1.34e5	1.12e5	3824	3377	active
23	MCTS1	DRSC18393	1.07e5	85617	2832	2564	inactive
